Reference: the supplement of paper PMC10735217
Structures can show the parent of a compound that is named as a salt. The list shows a part of the results. Single values are uncertain here, since repeats match poorly.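 Human kidney-derived cells stably carry a construct in which eight TEAD-binding elements drive luciferase, measured by luminescence in a drug-repurposing library screen. A hit is any compound whose signal exceeds the plate mean by more than five robust Z scores.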

System: HEK293A TEAD-LUC reporter
Experiment: TEAD-luciferase reporter activity (YAP activation), robust Z score vs plate; higher = stronger YAP/TEAD activation
Conditions: 24 h

SMILES	TEAD-luciferase reporter activity (compound concentration: 200 nM)	TEAD-luciferase reporter activity (compound concentration: 2 uM)	TEAD-luciferase reporter activity (compound concentration: 10 uM)
CC(Nc1cc(=O)n(C)c(=O)[nH]1)c1ccccc1 (stereo not given)	inactive: -0.62	inactive: -1.25	inactive: -0.753
O=C(CN1C(=O)NC2(CCOc3ccccc32)C1=O)NCc1cccc(Cl)c1 (stereo not given)	inactive: -0.93	inactive: -1.4	inactive: 2.56
COc1ccccc1S(=O)(=O)Nc1cc(C(=O)NC(C)(C)C)ccc1Oc1cc(F)c(CC(=O)O)cc1Cl	inactive: 1.42	inactive: -1.04	inactive: 0.605
Cc1nc(-c2cccnc2)sc1C(=O)Nc1ccccc1-c1cn2c(CN3CCOCC3)csc2n1 [sirtuin modulator]	inactive: 0.179	–	inactive: -0.188
Cc1nc(-c2cccnc2)sc1C(=O)Nc1ccccc1-c1cn2c(CN3CCOCC3)csc2n1	–	inactive: -0.759	–
O=c1ccc2ncc(=O)n3c2n1CC3CN1CCC(NCc2cc3c(cn2)OCCC3)CC1 (stereo not given) [Gepotidacin]	inactive: 0.873	–	inactive: -0.0979
CC(=O)Nc1ccc(OCC(O)CNC(C)C)c(C(C)=O)c1 (stereo not given) [Diacetolol hydrochloride]	inactive: 3.52	inactive: -0.783	inactive: 1.59
C=C(c1ccc(C(=O)O)cc1)c1cc2c(cc1C)C(C)(C)CCC2(C)C [bexarotene, gel]	–	inactive: -1.45	–
C=C(c1ccc(C(=O)O)cc1)c1cc2c(cc1C)C(C)(C)CCC2(C)C [Bexarotene]	inactive: 4.83	–	inactive: 1.16
CC(O)(c1ccncc1)c1nc(-c2ccc(F)cc2)no1 (stereo not given)	–	inactive: -0.341	–
CCc1cc(Nc2nc(-c3ccc(-n4cnc(C)c4)c(F)c3)cs2)c(C)cc1C	inactive: 1.1	inactive: 1.77	inactive: -0.864
CN[C@@H]1[C@@H](O)[C@@H](O[C@H]2[C@H](NC(=O)[C@@H](O)CN)C[C@H](N)C(O[C@H]3O[C@H](CN)[C@@H](O)[C@H](O)[C@H]3O)[C@@H]2O)OC[C@]1(C)O (stereo not given in full) [Isepamicin sulfate]	inactive: -0.484	inactive: -1.06	inactive: -0.971
CCN(CC)CCNc1ccc(CNC=O)c2sc3ccc(OC)cc3c(=O)c12	inactive: -1.12	inactive: -2.62	inactive: 0.19
Nc1ncnc(Nc2ccccc2)n1	inactive: -0.747	inactive: 0.905	inactive: -1.26
CS(=O)(=O)c1ccc(C2CC(C(F)(F)F)=NN2c2ccc(F)cc2)cc1 (stereo not given)	inactive: -0.745	inactive: -0.143	inactive: -0.239
O=C(/C=C1\NC(=O)CS1)Nc1ccccc1Cl	inactive: 0.573	inactive: -0.813	inactive: -1.13
NS(=O)(=O)c1ccc(Oc2ccc(NC(=O)N[C@@H]3[C@@H]4COc5c(F)ccc(F)c5[C@@H]43)nc2)cc1	inactive: -0.804	inactive: -0.27	inactive: 2
COCCN(C)CCOc1ccc2[nH]c(-c3cc4ccccc4[nH]c3=O)cc2c1	inactive: -0.488	inactive: 2.53	inactive: 0.405
C/C(=N\NC(=O)c1cccc(S(=O)(=O)N2CCN(C)CC2)c1)c1cc(Cl)ccc1O [Seclidemstat]	inactive: -0.122	–	inactive: -0.647

SMILES	TEAD-luciferase reporter activity (compound concentration: 200 nM)	TEAD-luciferase reporter activity (compound concentration: 2 uM)	TEAD-luciferase reporter activity (compound concentration: 10 uM)
CCCN(CC1CC1)c1nc(C)nc(Nc2c(Cl)cc(Cl)cc2Cl)c1Cl	inactive: -2.43	inactive: -0.116	inactive: -1.61
NCCCCCC(O)(P(=O)(O)O)P(=O)(O)O [neridronic acid]	inactive: -0.971	–	inactive: 0.982
NC(=O)c1c(NC(=O)Nc2ccc3c(c2)OCO3)sc2c(Cl)c(O)ccc12	inactive: -0.238	inactive: 0.439	inactive: -0.319
O=C(O)CN1C(=O)C(=O)N(Cc2cccc([N+](=O)[O-])c2)C1=O	inactive: -1.17	inactive: -0.635	inactive: -0.898
CCCNS(=O)(=O)Nc1ncnc(OCCOc2ncc(Br)cn2)c1-c1ccc(Br)cc1 [Macitentan]	inactive: -1.16	inactive: 0.0497	inactive: -0.488
O=C(c1n[nH]c2ccccc12)N1CCCN(Cc2ccccc2)CC1	inactive: -0.891	inactive: -0.934	inactive: -0.0753
Cn1c(=O)n(CCCCC(C)(C)O)c(=O)c2[nH]cnc21	inactive: -0.961	inactive: 0.0695	inactive: -2.38
CCCSc1nc(N2CCC[C@@H](CC(=O)O)C2)ccc1C(=O)NC1CCCCC1	inactive: 0.983	inactive: -0.119	inactive: -1.85
O=C(NO)c1cnc(N2CCN(S(=O)(=O)c3ccc4ccccc4c3)CC2)nc1	active: 33.4	active: 113	active: 66.8
OCC(S)CS (stereo not given) [Dimercaprol]	inactive: 1.11	inactive: 0.359	inactive: -0.522
COc1ccc(CN2CCC3(CC2)NC(=O)c2ccccc2O3)cc1	active: 8.1	–	inactive: 1.63
CC1(COc2ccc3c(c2)ncn3-c2ccc3cccc(N4CCC(N)CC4)c3n2)COC1 [crenolanib]	–	inactive: 2.47	–
CC1(COc2ccc3c(c2)ncn3-c2ccc3cccc(N4CCC(N)CC4)c3n2)COC1	inactive: -1.7	–	active: 8.38
OC(c1ccccc1)(c1ccccc1)C12CC[N+](CCOCc3ccccc3)(CC1)CC2	–	inactive: 2.45	–
OC(c1ccccc1)(c1ccccc1)C12CC[N+](CCOCc3ccccc3)(CC1)CC2 [Umeclidinium bromide]	inactive: -1.51	inactive: 0.687	inactive: 2
Oc1nc2cc(Cl)ccc2c(O)c1-c1cccc(Oc2ccccc2)c1	inactive: -0.635	inactive: 1.05	inactive: 0.411
N#Cc1cc(NC(=O)C(=O)O)c(Cl)c(NC(=O)C(=O)O)c1 [Lodoxamide]	inactive: 0.249	inactive: -1.5	inactive: -0.609
COc1cc(/C=C/C(=O)N2CCN(CC(=O)N3CCCC3)CC2)cc(OC)c1OC [cinepazide maleate]	inactive: -0.218	inactive: -1.34	inactive: -1.1
CCCn1cnc2c1c(=O)n(CCCCC(C)=O)c(=O)n2C	inactive: 0.452	inactive: -0.933	inactive: -1.36

Reprinted at random: 3 entries already listed, in no set order.
SMILES	TEAD-luciferase reporter activity (compound concentration: 200 nM)	TEAD-luciferase reporter activity (compound concentration: 2 uM)	TEAD-luciferase reporter activity (compound concentration: 10 uM)
CCCNS(=O)(=O)Nc1ncnc(OCCOc2ncc(Br)cn2)c1-c1ccc(Br)cc1 [Macitentan]	inactive: -1.16	inactive: 0.0497	inactive: -0.488
O=C(NO)c1cnc(N2CCN(S(=O)(=O)c3ccc4ccccc4c3)CC2)nc1	active: 33.4	active: 113	active: 66.8
OC(c1ccccc1)(c1ccccc1)C12CC[N+](CCOCc3ccccc3)(CC1)CC2 [Umeclidinium bromide]	inactive: -1.51	inactive: 0.687	inactive: 2

Next records follow:

SMILES	TEAD-luciferase reporter activity (compound concentration: 200 nM)	TEAD-luciferase reporter activity (compound concentration: 2 uM)	TEAD-luciferase reporter activity (compound concentration: 10 uM)
Cc1c(N(C)C)c(=O)n(-c2ccccc2)n1C	inactive: -1.36	inactive: 1.39	inactive: -1.21
CC(C)(C)c1ccc(CN2CCN(C(c3ccccc3)c3ccc(Cl)cc3)CC2)cc1 (stereo not given) [Buclizine hydrochloride]	inactive: -2.28	inactive: -0.272	inactive: -1.68
CC(=O)Oc1ccccc1C(=O)O	inactive: -1.16	–	inactive: -0.0862
CC(=O)Oc1ccccc1C(=O)O [Aspirin]	–	inactive: -1.6	–
CCCCc1cc2ccccc2c(OCCN(C)C)n1	inactive: 0.736	active: 9.03	active: 8.36
O=C1CCN(c2ccccc2)c2cc(Cl)ccc2N1 [analog of Lofendazam]	inactive: -0.678	inactive: -1.93	inactive: -0.693
O=C(NO)C1(NS(=O)(=O)c2ccc(Oc3ccc(Cl)cc3)cc2)CCOCC1	inactive: 0.0451	inactive: 1.1	inactive: 0.3
CCOC(=O)[C@@H](N)Cc1ccc(O)c(O)c1 [Etilevodopa]	inactive: -1.86	inactive: 2.33	inactive: 0.504
CO/N=C(\C(=O)N[C@@H]1C(=O)N2C(C(=O)[O-])=CCS[C@H]12)c1csc(N)n1 [Ceftizoxime (sodium)]	inactive: -1.42	inactive: -0.24	inactive: 0.69
CN1CCN2c3c(cccc31)[C@@H]1CN(CCCC(=O)c3ccc(F)cc3)CC[C@@H]12	active: 6.89	inactive: 1.41	inactive: 0.18
CN(Cc1ccccc1)C(=O)[C@@H](NC(=O)c1cc2cc(NC(=O)c3ccccc3-c3ccc(C(F)(F)F)cc3)ccc2n1C)c1ccccc1	inactive: -0.699	inactive: 0.111	inactive: -1.32
CCc1nc2c(N)nc3ccccc3c2n1CCCCNS(C)(=O)=O	inactive: -1.09	inactive: 0.277	inactive: 0.428
CC(C)C(=O)N1Cc2ccccc2CC2(CCCN2C)C1 (stereo not given)	inactive: -1.25	–	inactive: 1.57
Cc1ccsc1-c1ccc(C(C)C(=O)O)cc1 (stereo not given)	inactive: -0.345	inactive: -0.806	inactive: 0.978
Cc1c(CN2CCN(C(=O)[C@H](C)O)CC2)sc2c(N3CCOCC3)nc(-c3cnc(N)nc3)nc12 [apitolisib]	inactive: -0.217	inactive: -2.45	inactive: 1.97
CC1=C\[C@@H](O)CC(=O)Cc2nc(co2)C(=O)N2CCC=C2C(=O)O[C@H](C(C)C)[C@H](C)/C=C/C(=O)NC/C=C\1 [Pristinamycin IIA]	inactive: -1.19	inactive: -1.15	inactive: 2.34
CCO[C@@H]1OC(=O)C[C@@H]1NC(=O)[C@@H]1CCCN1C(=O)[C@@H](NC(=O)c1ccc(N)c(Cl)c1)C(C)(C)C [Belnacasan]	inactive: -1.61	inactive: -1.22	inactive: 0.962
CC(C)C[C@H]1[C@H](c2ccccc2)OC(=O)N1CCCN1CCCCCC1 [Ipenoxazone]	inactive: -2.08	inactive: -0.832	inactive: -0.103
CCC(=O)[C@@]1(C)CC[C@H]2[C@@H]3CCC4=CC(=O)CCC4=C3CC[C@@]21C [promegestone]	inactive: -2.86	inactive: -1.56	active: 5.8
